Screening data

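Uptake of anthrax lethal toxin into cultured cells, read by FRET (460/530 nm ratio) and reported from the 460 nm channel; the cell line is not named here.
Each compound was tested as a concentration series from about 0.0005 to 40 µM.
The number is the fitted AC50 of the 460 nm signal alone; lower values mean a more potent effect. A falling signal goes with compounds filed as inhibitors or cytotoxic, a rising one with activators or fluorescent compounds (inferred from the filed classes).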

Values are in µM.
Common to all entries: measured here: 460 nm channel.
Part of the compounds only, not a random draw; the main read-out is not listed here.
Potencies fitted to partial, single-point or poorly fitting curves are rough.
The first word of each remark tells which way the curve ran; it can be opposite to the aim of the assay.

Compound	AC50 (µM)	remark
CCN(CC(=O)Nc1ccc2c(c1)OCCO2)C(=O)C1CCCCC1	1.585	falling, full curve, poor fit
CC(=O)Nc1ccccc1C=C1c2ccccc2-c2ccccc21	5.012	falling, partial curve, poor fit
CC1=C(C#N)C(C)C2=C(CC(C)(C)CC2=O)N1 (stereo not drawn)	12.59	rising, single point
Cc1nc2[nH]onc2c2nccc(=O)c12	1.585	falling, partial curve
Cc1cccc(-n2ncc3c(NC(C)C)ncnc32)c1	19.95	falling, partial curve, poor fit
N=c1oc2c3c4c(cc2cc1C(=O)Nc1ccccc1)CCCN4CCC3	1.259	rising, partial curve
CN(C)c1ccc(-c2nc(-n3ccnc3)c3ccccc3n2)cc1	25.12	rising, partial curve
COc1ccc(-c2cc(-c3ccccc3)nc(N3CCCC3)n2)cc1OC	31.62	rising, single point
Cc1noc(C)c1C(=O)N1CCC2(CCN(Cc3nccs3)CC2)CC1	1.995	falling, partial curve
CCCCc1cc(O)c(CCCC)c(O)c1	10	falling, single point
Oc1ccc([C@@H]2CNCCc3c2cc(O)c(O)c3Cl)cc1	12.59	falling, single point
COc1ccc(C(=O)N2CCC3(CC2)CN(c2ccccn2)C3)cc1	1.259	rising, full curve, poor fit
CC(C)(C)c1ccc(C(=O)NCCC(=O)NCc2ccco2)cc1	0.1995	rising, single point
c1ccc(Cn2c(NCc3ccco3)nc3ccccc32)cc1	10	falling, partial curve, poor fit
CCCC(=O)Nc1ccc(N2CCN(CC)CC2)c(Cl)c1	5.012	rising, single point
CCCCCn1c(=NC(C)=O)c(C#N)cc2c(=O)n3cccc(C)c3nc21	7.943	rising, partial curve
COc1ccccc1NC(=O)CN1CCN(C2c3ccccc3-c3ccccc32)CC1	25.12	rising, single point
COc1ccc(C[C@H]2c3cc(OC)c(OC)cc3CCN2C)cc1OC	0.01995	rising, full curve, poor fit
CC(C)Sc1nnc([C@H](C)NC(=O)OC(C)(C)C)o1	6.31	rising, partial curve
CC(C)[N+]1(C)[C@@H]2CC[C@H]1CC(OC(=O)[C@@H](CO)c1ccccc1)C2 (stereo partly drawn)	12.59	falling, partial curve
CCC(=NC1CC1)c1c(O)n(-c2ccc(OC)cc2)c(=O)[nH]c1=O	19.95	rising, single point
COc1ccc(-c2cc(C(F)(F)F)n3nc(C(=O)NCc4ccco4)cc3n2)cc1	12.59	rising, partial curve
CN(CC(=O)N1CCCCCC1)S(=O)(=O)c1ccc(Br)s1	5.012	falling, single point
CCOC(=O)C1=C(C)NC(c2ccccc2)=C(C(=O)OCc2ccc([N+](=O)[O-])cc2)[C@@H]1C#Cc1ccccc1	25.12	falling, partial curve
Cc1ccc2c(c1)C(O)(CC(=O)c1ccc3c(c1)OCO3)C(=O)N2 (stereo not drawn)	0.2512	rising, single point
Cc1cc(Oc2ccccc2)nc2ccc(O)cc12	19.95	falling, partial curve
Cc1cccc(-n2c(=O)[nH]c3c(C(N)=O)nc(-c4ccccc4Cl)nc32)c1	31.62	falling, single point
Cc1ccc2c(c1)-c1c(cnn1CC(=O)NC(C)CCc1ccco1)CO2 (stereo not drawn)	0.7943	rising, single point
COc1cccc(-c2cc(C(=O)Nc3ccccc3SC)no2)c1	10	falling, partial curve
COc1ccc(-n2c(=O)c(-c3cccs3)nc3cnc(Nc4ccccc4)nc32)cc1	12.59	rising, partial curve
Cc1cc2oc(C(=O)Nc3c(C)n(C)n(-c4ccccc4)c3=O)c(C)c2cc1C	10	falling, partial curve
COCc1cc(C)nc(Nc2ccc(C)c(C)c2)c1C#N	25.12	rising, single point
CCCCc1oc2ccccc2c1C(=O)c1cc(I)c(OCCN(CC)CC)c(I)c1	25.12	falling, partial curve
CCn1c(=NC(=O)CSC(C)=O)sc2cc(F)ccc21	19.95	rising, single point
COc1ccccc1-c1ccc2ncnc(NCCN3CCOCC3)c2c1	5.012	falling, single point
CCOC(=O)c1ccc(N2CSC3=C(C#N)C(c4ccc(OC)cc4OC)CC(=O)N3C2)cc1 (stereo not drawn)	31.62	falling, single point
Clc1ccc(OCc2nnc(-c3ccccc3Br)o2)c(Cl)c1	1	falling, partial curve
COc1ccccc1C1C=C(c2ccccc2)Nc2nnnn21 (stereo not drawn)	2.512	falling, full curve
CC[C@]1([C@H]2O[C@@H]([C@@H]3O[C@](O)(CO)[C@@H](C)C[C@H]3C)C[C@H]2C)CC[C@@H]([C@]2(C)CC[C@@]3(C[C@@H](O)[C@@H](C)[C@@H]([C@H](C)[C@H](OC)[C@H](C)C(=O)O)O3)O2)O1	0.1	falling, full curve
Cc1nc(N2CCN(c3ccccc3)CC2)c2c3c(sc2n1)CCC3	7.943	falling, partial curve, poor fit
Cc1cc(NC(=O)c2cc3nc(C4CC4)cc(C(F)(F)F)n3n2)no1	25.12	rising, single point
CCCCn1c(=O)[nH]c(=O)c2c1nc(-c1ccncc1)n2CCOC	0.3981	falling, full curve, poor fit

The last 4 entries again:

Compound,AC50 (µM),remark
CC[C@]1([C@H]2O[C@@H]([C@@H]3O[C@](O)(CO)[C@@H](C)C[C@H]3C)C[C@H]2C)CC[C@@H]([C@]2(C)CC[C@@]3(C[C@@H](O)[C@@H](C)[C@@H]([C@H](C)[C@H](OC)[C@H](C)C(=O)O)O3)O2)O1,0.1,"falling, full curve"
Cc1nc(N2CCN(c3ccccc3)CC2)c2c3c(sc2n1)CCC3,7.943,"falling, partial curve, poor fit"
Cc1cc(NC(=O)c2cc3nc(C4CC4)cc(C(F)(F)F)n3n2)no1,25.12,"rising, single point"
CCCCn1c(=O)[nH]c(=O)c2c1nc(-c1ccncc1)n2CCOC,0.3981,"falling, full curve, poor fit"

The results are deposited in PubChem (AID912; NCATS, 2007).